Assay: general procedure: solution-phase peptide synthesis; OSu active ester
Details: late stage modification step

Work on “L-(pyro)glutamyl-L-seryl-Glycyl-Glycine amide (pGlu-Ser-Gly-Gly(NH2))” yielded a step yield of 50%.

Source: patent publication US4186198 (dated 1980)
